Results on 4 molecules are retold here after patent publication US20260116991A1.

The target in this experiment is monkey GPC3-His protein (monkey). Description: SPR, antibody captured on Protein A chip, monkey GPC3-His analyte.

Results are given in words; binding and its absence hold for the method and conditions named. Binding calls can cover weak binding; strength is not graded here.

B1: F1.73.9 (antibody, human IgG1, kappa, V domains shown)
VH: QVQLKQSGAELVRPGASVKLSCKASGYTFTDYYINWVKQRPGQGLEWIARIYPGSGNTYYNEKFKGKATLTAEKSSSTAYMQFSSLTSEDSAVYFCACSTYYTMDYWGQGTSVTVSS
VL: QIVLTQSPAIMSASLGERVTMTCTASSGVSSSYLHWYQQKPGSSPKLWIYTTSNLASGVPARFSGSGSGTSYSLTISSMEAEDAATYYCHQYHRSPYTFGGGTKLEIKR
Consider B1, for which the binding result is recorded as “binds”.

B2: F1.42.8 (antibody, human IgG1, kappa, V domains shown)
VH: HVQLQQPGAELVKPGASVKLSCKASGYTFTSYWMHWVRQRPGQGLEWIEMIHPNSGSTNYNEKFKSKATLTVDKSSSTAYMQLSSLTSEDSAVYYCARGNYNSSLYAMDYWGQGTSVTVSS
VL: DIQMTQTTSSLSASLGDRVTISCSASQGISNYLNWYQQKPDGTVKLLIYYASNLHSGVPSRFSGSGSGTAYSLTISNLEPEDIATYYCQQYSILPYTFGGGTKLEIKR
For B2, the binding entry is recorded as “binds”.

B3: F2.169.2 (antibody, human IgG1, kappa, V domains shown)
VH: EVQLVETGGGLVQPKGSLKLSCAASGFSFNTNAMNWVRQAPGKGLEWVARIRSKSNNYATYYADSVKDRFTISRDDSQSMLYLQMNNLKTEDTAMYYCVRDGYYVLFAYWGQGTLVTVSA
VL: DVLMTQTPLSLPVSLGDQASISCRFSQSIVNSNGNTYLEWFLQKPGQSPKLLIYKVSNRFSGVPDRFSGSGSGTDFTLKISRVEAEDLGVYYCFQGSHVPFTFGTGTKLEIKR
Take B3: the binding result was “binds”.

B4: F2.152.3 (antibody, human IgG1, kappa, V domains shown)
VH: EVQLQQSGPELVKPGASVKMSCKASGYTFTDYYMTWVKQSHGKSLEWIGRVNPRNGDTTYNQKFEGRATLTLDKSLSTAFMQLNSLTSEDSAVYYCINSKGHFDYWGQGTTLTVSS
VL: DVLMTQTPLSLPVSLGDQASISCRSSQSIVHSNGNTYLEWFLQKPGQSPKSLIYKVSNRFSGVPDRFSGSGSGTDFTLKISRVEAEDLGVYYCFQGSHVPPTFGAGTKLELKR
On to B4, for which the binding result is recorded as “binds”.
